Patent US20250043022A1
Residue numbers refer to the chain shown, from its start. Results are given in words; binding and its absence hold for the method and conditions named. Some results given as binding are weak or reduced against the parent protein; the word gives no strength.

Amino acid sequences for entries named in this document (tags omitted). A change or cut given only in a name is not applied to a line headed by its entry. Residues count along the entry.
UniProt Q04609: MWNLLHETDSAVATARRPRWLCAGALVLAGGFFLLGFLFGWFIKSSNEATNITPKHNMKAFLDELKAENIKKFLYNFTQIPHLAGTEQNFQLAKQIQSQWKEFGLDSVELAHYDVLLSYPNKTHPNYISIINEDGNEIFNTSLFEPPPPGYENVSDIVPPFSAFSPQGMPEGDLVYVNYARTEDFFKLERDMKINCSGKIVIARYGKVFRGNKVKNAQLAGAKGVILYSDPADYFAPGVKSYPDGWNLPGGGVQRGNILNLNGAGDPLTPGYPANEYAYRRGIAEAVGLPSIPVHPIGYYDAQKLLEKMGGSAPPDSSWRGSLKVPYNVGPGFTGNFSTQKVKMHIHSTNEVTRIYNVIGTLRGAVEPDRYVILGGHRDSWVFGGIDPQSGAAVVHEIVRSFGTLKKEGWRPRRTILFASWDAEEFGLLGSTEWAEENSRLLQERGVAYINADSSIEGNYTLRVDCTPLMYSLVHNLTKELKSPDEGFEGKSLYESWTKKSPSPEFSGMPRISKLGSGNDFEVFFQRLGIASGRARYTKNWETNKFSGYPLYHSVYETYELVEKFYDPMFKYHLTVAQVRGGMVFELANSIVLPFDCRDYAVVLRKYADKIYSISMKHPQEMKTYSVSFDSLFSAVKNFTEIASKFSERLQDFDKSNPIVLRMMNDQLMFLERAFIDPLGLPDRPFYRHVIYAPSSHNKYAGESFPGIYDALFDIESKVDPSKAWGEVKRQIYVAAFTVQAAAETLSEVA
human PSMA antigen (R&D SYSTEM, 4234-ZN-010): residues 44-750 of Q04609

Legend:
[1] = target: cynomolgus monkey PSMA on the cell surface (cynomolgus monkey); experiment: hybridoma screening on cells
[2] = target: human PSMA on cells (Cho-hPSMA, CHO-K1 cells overexpressing full-length human PSMA) (human) (UniProt Q04609); experiment: hybridoma screening on cells
[3] = target: human PSMA antigen (R&D SYSTEM, 4234-ZN-010) (human) (UniProt Q04609); experiment: ELISA
[4] = target: human PSMA on cells (Cho-hPSMA, CHO-K1 cells overexpressing full-length human PSMA) (human) (UniProt Q04609); experiment: Cho-hPSMA cells

B1: murine antibody 2 (antibody, V domains shown)
VH: EVKLVESEGGLVQPGSSMKLSCTASGFTFSDYYMAWVRQVPEKGLEWVANINFDGSSTYYLDSLKSRFIISRDNAKNILYLQMSSLKSEDTATYYCARDLDGYYGYFDVWGTGTTVTVSS
VL: QIVLTQSPAIMSASPGEKVTISCSASSSVSHMYWYQQKPGSSPKPWIYRTSNLASGVPARFSGSGSGTSYSLTISSMEAEDAATYYCQQYHSYPLMFGAGTKLELK
How did the binding [1] turn out when B1 was run?
Its binding is “binds”.

B2: murine antibody 13 (antibody, V domains shown)
VH: QVQLKESGPGLVAPSQSLSITCTVSGFSLTNYAISWVRQPPGKGLEWLGVIWTGGGTHYNSALKSRLSISKDNSKSQVFLKMNSLQTDDTARYYCARKGNYYGSSLYYYAMNYWGQGTSVTVSS
VL: DIQMTQTTSSLSASLGDRVTISCRASQDISNYLNWYQQKPDGTVKLLIYYTSRLQSGVPSRFSGSGSGTDYSLSISNLEQEDIATYFCQQGDTLPYTFGGGTKLEI
For B2, which binding [1] is on record?
The binding was “binds”.

And the binding [2]?
The binding was “binds”.

B3: murine antibody 15 (antibody, V domains shown)
VH: EFQLQQSGPELVKPGASVKISCKASGYSFTDHNMNWVKQSNGKSLEWIGLINPNYGTADYNQKFKGKATLTVDQSSTTAFMQFTSLTSEDSAVYYCARGSSLFAYWGQGTLVTVSA
VL: DIVMTQSHKFMSTSVGDRVNITCKASQGVDTAVAWYQQKPGQSPKLLIYWASTRHTGVPDRFTGSGSGTDFTLTISNVQSEDLADYFCQQYSRYPLTFGAGTKLELK
Which binding [1] does the source give for B3 here?
The binding was “binds”.

B4: murine antibody 19 (antibody, V domains shown)
VH: EVKLVESEGGLVQPGSSMKLSCTASGFTFSDYYMAWVRQVPERGLEWVANINYDGSSTYYLDSLKSRFIISRDNAKNILYLQMSSLKSEDTATYYCARGGDYWDAMDYWGQGTSVTVSS
VL: DIQMTQTTSSLSASLGDRVTISCRASQDISKYLNWYQQKPDGTVKLLIYYTSSLHSGVPSRFSGSGSGTDYSLTISNLEQEDIATYFCQQGNRLPRTFGGGTKLEIK
With B4 as the binder, how does the binding [1] read?
Its binding is “binds”.

B5: murine antibody 27 (antibody, V domains shown)
VH: B1 VH with F53Y
VL: B1 VL with H31Y, M96T
Which binding [1] does the source give for B5 here?
Its binding is “binds”.

B6: murine antibody 31 (antibody, V domains shown)
VH: EVKLVESEGGLVQPGSSKKLSCTASGFTFSDYYMAWVRQVPEKGLEWVASINYDGSSTYYLDSLKSRFIISRDNAKNNLYLQMNSLKSEDTATYYCAGSDGYWAWFAYWGQGTLVTVSA
VL: DIQMTQSPASLSASVGEAVTITCRASGNIHNYLAWYQQKQGKSPQLLVYNAETLADGVPSRFSGSGSGTQFSLKINSLRPEDFGSYYCQHFWSTPPTFGGGTKLEIK
B6 was tested. Which binding [1] did it give?
Its binding is “binds”.

B7: murine antibody 41 (antibody, V domains shown)
VH: QVQLQQSGAELARPGASVKLSCKASGYTFTSYGISWVKQRTGQGLEWIGEIFPRRGNTYYNEKFRGKATLTADKSSSAAYMELRSLTSEDSAVYFCARVFDGYYNYAMDYWGQGTSVTVSS
VL: DIQMTQSPSSLSASLGERVSLTCRASQDIGSSLNWLQQQPDGTIKRLIYATSSLDSGVPTRFSGSRSGSDYSLTISSLESEDFVDYYCLQYASSPYTFGGGTKLEIK
Which results are given for B7?
binding [1]: binds; binding [2]: binds

B8: murine antibody 43 (antibody, V domains shown)
VH: EVKFEESGGGLVQPGGSMKLSCVASGFTFSNYWMNWLRQSPEKGLEWVAQVRLKSDNYATHYAESVKGRFTISRDDSKSSAYLQMNNLRAEDTGIYYCSENYYGPAGPFDFWGQGTTLTVSS
VL: DIVMTQSQKFMSTTVGDRVSITCKASQNVHTSVAWYQQKPGQSPKLLIYSASNRYSGVPDRFTGSGSGTDFTLTINNMQSEDLADYFCQQYSSYPLTFGVGTKLELK
How did the binding [1] turn out when B8 was run?
Its binding is “binds”.

B9: murine antibody 46 (antibody, V domains shown)
VH: EVQLVESGGDLVKPGGSLKLSCAASGFTFSNYGMSWVRQTPDKRIKWVATIGSGGGYTYYSDSVKGRFTISRDNAKNTLYLQMSSLKSEDTAIYYCVRHPQIGYWGQGTLVTVSA
VL: B8 VL with S20T, N28S, H30G, S32A, N53S, S56T, N76T, Q89H, V100G, L106I
With B9 as the binder, how does the binding [1] read?
Its binding is “binds”.

B10: murine antibody 50 (antibody, V domains shown)
VH: QVQLQQSGAELARPGASVKLSCKASGFTFTNYGISWVKQRTGQGLEWIGEIYPRSGNTYYNTNFKGEATLTADKSSSTAFMELRSLTSEDSAVYFCARNPFTTVVEGFAFWGQGTLVTVSA
VL: DVFMTQSPLSLPVSLGDQASISCRSSQSILHSNGNTYLEWYLQKPGQSPKLLIYRVSNRFSGVPDRFSGSGSGTDFTLKISRVEAEDLGVYYCFQGLHVPPTFGAGTKLELK
For B10, which binding [1] is on record?
Its binding is “binds”.

B11: murine antibody 71 (antibody, V domains shown)
VH: QVQLVETGGGLVRPGNSLKLSCVTSGFTFSNYRMHWLRQPPGKRLEWIAVITVKSDNYGSSYAESVKGRFAISRDDSKSSVYLEMNRLREEDTATYFCSRELGQVLVFWGQGTLVTVSA
VL: DVVVTQTPLSLPVSLGDQASISCRSSQSLVHSYGNTYLHWYLQKPGQSPKLLIYKVSNRFSGVPDRFSGSGSGTDFTLKISRVEAEDLGVYFCSQTTHVPWTFGGGTKLEIK
Which binding [1] does the source give for B11 here?
The binding was “binds”.

B12: murine antibody 73 (antibody, V domains shown)
VH: QVQLQQSGPELVKPGASVKISCKASGYAFSTSWMNWVKERPGKGLEWIGRIYPGDGDTKYNGKFQGKATLTADKSSSTAYMKLSSLTSEDSAVYFCVRSIYYLYYFDYWGQGTTLTVSS
VL: DIQMTQPTSSLSASLGDRVTISCSTSQDIYNNLSWFQQKPDGTVRLLIYYTSSLHSGVPSRFSGSGSGTDYSLTISNLEPEDIATYYCQQYNNLPFTFGGGTNLEIR
How did the binding [1] turn out when B12 was run?
Its binding is “binds”.

B13: hu2H1L1 (antibody, human IgG1, kappa, V domains shown)
VH: EVQLVESGGGLVQPGGSLRLSCAASGFTFSDYYMAWVRQAPGKGLEWVANINFDGSSTYYLDSLKSRFTISRDNAKNSLYLQMNSLRAEDTAVYYCARDLDGYYGYFDVWGQGTTVTVSS
VL: EIVLTQSPDFQSVTPKEKVTITCSASSSVSHMYWYQQKPDQSPKLLIYRTSNLASGVPSRFSGSGSGTDFTLTINSLEAEDAATYYCQQYHSYPLMFGQGTKLEIKR
B13 was tested. Which binding [3] did it give?
The binding was “binds”.

B14: Chi13 (antibody, human IgG1, kappa, V domains shown)
VH: B2 VH
VL: DIQMTQTTSSLSASLGDRVTISCRASQDISNYLNWYQQKPDGTVKLLIYYTSRLQSGVPSRFSGSGSGTDYSLSISNLEQEDIATYFCQQGDTLPYTFGGGTKLEIRT
B14 was tested. Which binding [3] did it give?
The binding was “binds”.

What about the binding [4] of the same binder?
Its binding is “binds”.

B15: hu15H4L2 (antibody, human IgG1, kappa, V domains shown)
VH: EFQLVQSGAEVKKPGASVKVSCKASGYSFTDHNMNWVRQAPGQRLEWMGLINPNYGTADYNQKFKGRVTLTVDQSATTAYMELSSLRSEDTAVYYCARGSSLFAYWGQGTLVTVSS
VL: DIQMTQSPSSLSASVGDRVTITCKASQGVDTAVAWYQQKPGKSPKLLIYWASTRHTGVPDRFSGSGSGTDFTLTISSLQPEDVATYYCQQYSRYPLTFGQGTKLEIKR
For B15, which binding [3] is on record?
Its binding is “binds”.

B16: hu31H1L1 (antibody, human IgG1, kappa, V domains shown)
VH: EVQLVESGGGLVQPGGSLRLSCAASGFTFSDYYMAWVRQAPGKGLEWVASINYDGSSTYYLDSLKSRFTISRDNAKNSLYLQMNSLRAEDTAVYYCAGSDGYWAWFAYWGQGTLVTVSS
VL: DIQMTQSPSSLSASVGDRVTITCRASGNIHNYLAWYQQKPGKAPKLLIYNAETLADGVPSRFSGSGSGTDFTLTISSLQPEDFATYYCQHFWSTPPTFGGGTKVEIKR
For B16, which binding [3] is on record?
Its binding is “binds”.

B17: hu41H2L2 (antibody, human IgG1, kappa, V domains shown)
VH: EVQLVQSGAEVKKPGASVKVSCKASGYTFTSYGISWVRQAPGQGLEWMGEIFPRRGNTYYNEKFRGRVTLTADKSTSTAYMELRSLRSDDTAVYYCARVFDGYYNYAMDYWGQGTTVTVSS
VL: DIQMTQSPSSLSASVGDRVTITCRASQDIGSSLNWLQQKPGKAIKRLIYATSSLDSGVPSRFSGSRSGTDYTLTISSLQPEDFATYYCLQYASSPYTFGGGTKVEIKR
B17 was tested. Which binding [3] did it give?
Its binding is “binds”.

B18: hu43H3L2 (antibody, human IgG1, kappa, V domains shown)
VH: EVQFVESGGGLVQPGGSLRLSCAASGFTFSNYWMNWLRQAPGKGLEWVAQVRLKSDNYATHYAESVKGRFTISREDAKNSAYLQMNSLRAEDTAVYYCSENYYGPAGPFDFWGQGTTVTVSS
VL: B15 VL with G28N, D30H, A32S, W50S, T53N, H55Y, T56S, D60S, R93S
For B18, which binding [3] is on record?
Its binding is “binds”.

B19: hu46H2L2 (antibody, human IgG1, kappa, V domains shown)
VH: EVQLVESGGGLVKPGGSLRLSCAASGFTFSNYGMSWVRQAPGKGLEWVSTIGSGGGYTYYSDSVKGRFTISRDNAKNSLYLQMNSLRAEDTAVYYCVRHPQIGYWGQGTLVTVSS
VL: DIQMTQSPSSLSASVGDRVTITCKASQSVGTAVAWYQQKPGKAPKLLIYSASSRYTGVPSRFSGSGSGTDFTLTISSLQPEDFADYFCHQYSSYPLTFGGGTKVEIKR
Which binding [3] does the source give for B19 here?
Its binding is “binds”.

B20: chi73 (antibody, human IgG1, kappa, V domains shown)
VH: B12 VH
VL: DIQMTQPTSSLSASLGDRVTISCSTSQDIYNNLSWFQQKPDGTVRLLIYYTSSLHSGVPSRFSGSGSGTDYSLTISNLEPEDIATYYCQQYNNLPFTFGGGTNLEIRR
For B20, which binding [3] is on record?
Its binding is “binds”.
